Data source: PubChem BioAssay AID1224828 (NIAID, 2016)

Screen: 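Regulators linking TLR4 signalling to p65 nuclear translocation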 (primary screen)
Cell system: mouse RAW264.7 G9 macrophage reporter cells (GFP-p65, Tnf promoter-mCherry)
Reagents: siRNA pool against mouse genes, 100 nM
Duration: 2 days siRNA transfection, then 40 min LPS before fixation
Treatment: LPS (Salmonella minnesota R595) at 10 ng/ml
Measured: 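Microscopy ratio of nuclear to perinuclear-ring GFP-p65 signal, scaled to the plate median; gene score is the average of two replicate robust z-scores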
Reading the numbers: p65 translocation robust z-score: higher = more nuclear NF-kappaB p65 after LPS than the plate median; nuclear/cytoplasmic p65 ratio: higher = more nuclear NF-kappaB p65
Active means: 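Active if robust z is above 3.3 (negative regulators) or below -1.56, the Tlr4 control median (positive regulators); activity score 50 or more; control wells not called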
Meaning of the calls: active = hit (p65 shift raised or lowered); inactive = no clear change
In all, the deposit lists about 17,000 reagents; below is a random part of them. In the full data, 762 (4.5%) were called active. 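Active calls include both raised and lowered p65 entry, mostly lowered; wells with fewer than 50 cells lack a z-score.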 Raw values vary from plate to plate and are shown uncorrected. A number with no mark means an inactive call.

no.	target	PubChem SID	p65 translocation robust z-score	nuclear/cytoplasmic p65 ratio, rep 1	nuclear/cytoplasmic p65 ratio, rep 2	low cell count flag
1	Trpc4	SID315469838	-1.02	1.36	1.37	enough cells to score
2	Emcn (endomucin)	SID315472001	-0.08	1.44	1.37	enough cells to score
3	Ctnna1 (catenin alpha 1)	SID315465780	-1.08	1.7	1.24	enough cells to score
4	Itga9 (integrin alpha 9)	SID315476414	0.52	1.48	1.51	enough cells to score
5	Sbno2 (strawberry notch 2)	SID315477981	-0.66	1.42	1.8	enough cells to score
6	Rab5a (RAB5A, member RAS oncogene family)	SID315480948	1.53	1.77	1.72	enough cells to score
7	Aspm (abnormal spindle microtubule assembly)	SID315465733	0.45	1.65	1.72	enough cells to score
8	Plet1 (placenta expressed transcript 1)	SID315475332		1.24	1.28	fewer than 50 cells per well; well left out of scoring
9	Or4d10b (olfactory receptor family 4 subfamily D member 10B)	SID315480329	-0.15	1.6	1.4	enough cells to score
10	Tbx3 (T-box 3)	SID315469596	-0.38	1.49	1.44	enough cells to score
11	Nfkbiz	SID315475730	1.02	1.49	1.69	enough cells to score
12	Rbm28 (RNA binding motif protein 28)	SID315473484	1.02	1.62	1.28	enough cells to score
13	Tmem183a (transmembrane protein 183A)	SID315471792	-0.77	1.4	1.38	enough cells to score
14	Phb1 (prohibitin 1)	SID315468492	-1.42	1.33	1.2	enough cells to score
15	Scgb2b26 (secretoglobin, family 2B, member 26)	SID315476883	0.14	1.62	1.71	enough cells to score
16	Scgb2b26 (secretoglobin, family 2B, member 26)	SID315479057	0.56	1.55	1.56	enough cells to score
17	Nkx2-3 (NK2 homeobox 3)	SID315468181	-0.37	1.41	1.36	enough cells to score
18	Grem2 (gremlin 2, DAN family BMP antagonist)	SID315470222	-0.63	1.25	1.15	enough cells to score

In a second layout: 6 of the entries above
{"target": "Trpc4", "PubChem SID": "SID315469838", "p65 translocation robust z-score": -1.02, "nuclear/cytoplasmic p65 ratio, rep 1": 1.36, "nuclear/cytoplasmic p65 ratio, rep 2": 1.37, "low cell count flag": "enough cells to score"}
{"target": "Emcn (endomucin)", "PubChem SID": "SID315472001", "p65 translocation robust z-score": -0.08, "nuclear/cytoplasmic p65 ratio, rep 1": 1.44, "nuclear/cytoplasmic p65 ratio, rep 2": 1.37, "low cell count flag": "enough cells to score"}
{"target": "Ctnna1 (catenin alpha 1)", "PubChem SID": "SID315465780", "p65 translocation robust z-score": -1.08, "nuclear/cytoplasmic p65 ratio, rep 1": 1.7, "nuclear/cytoplasmic p65 ratio, rep 2": 1.24, "low cell count flag": "enough cells to score"}
{"target": "Itga9 (integrin alpha 9)", "PubChem SID": "SID315476414", "p65 translocation robust z-score": 0.52, "nuclear/cytoplasmic p65 ratio, rep 1": 1.48, "nuclear/cytoplasmic p65 ratio, rep 2": 1.51, "low cell count flag": "enough cells to score"}
{"target": "Sbno2 (strawberry notch 2)", "PubChem SID": "SID315477981", "p65 translocation robust z-score": -0.66, "nuclear/cytoplasmic p65 ratio, rep 1": 1.42, "nuclear/cytoplasmic p65 ratio, rep 2": 1.8, "low cell count flag": "enough cells to score"}
{"target": "Rab5a (RAB5A, member RAS oncogene family)", "PubChem SID": "SID315480948", "p65 translocation robust z-score": 1.53, "nuclear/cytoplasmic p65 ratio, rep 1": 1.77, "nuclear/cytoplasmic p65 ratio, rep 2": 1.72, "low cell count flag": "enough cells to score"}

Further results:
no.	target	PubChem SID	p65 translocation robust z-score	nuclear/cytoplasmic p65 ratio, rep 1	nuclear/cytoplasmic p65 ratio, rep 2	low cell count flag
19	Cldn13 (claudin 13)	SID315471730	-1.11	1.42	1.6	enough cells to score
20	Tbp (TATA box binding protein)	SID315469588	-1.15	1.34	1.37	enough cells to score
21	Ube2z (ubiquitin-conjugating enzyme E2Z)	SID315480773	0.23	1.52	1.37	enough cells to score
22	Ppip5k2 (diphosphoinositol pentakisphosphate kinase 2)	SID315478562	1.91	1.96	1.84	enough cells to score
23	Anapc16 (anaphase promoting complex subunit 16)	SID315471012	0.72	1.71	1.87	enough cells to score
24	Dst (dystonin)	SID315466396	1.7	1.7	1.57	enough cells to score
25	Sell (selectin, lymphocyte)	SID315469168	1.05	1.59	1.81	enough cells to score
26	Ttc8 (tetratricopeptide repeat domain 8)	SID315475271		1.42	1.29	fewer than 50 cells per well; well left out of scoring
27	Tat (tyrosine aminotransferase)	SID315479189	0.65	1.66	1.56	enough cells to score
28	Or8b35 (olfactory receptor family 8 subfamily B member 35)	SID315480097	0.29	1.51	1.3	enough cells to score
29	Rlim (ring finger protein, LIM domain interacting)	SID315468986		1.72	1.1	fewer than 50 cells per well; well left out of scoring
30	Rlim (ring finger protein, LIM domain interacting)	SID315468987	-2.05 (active)	1.26	1.41	enough cells to score
31	Map2k7 (mitogen-activated protein kinase kinase 7)	SID315470378	-0.92	1.41	1.26	enough cells to score
32	Tmtc1 (transmembrane and tetratricopeptide repeat containing 1)	SID315481850	1.11	1.75	2.02	enough cells to score
33	Arhgef40 (Rho guanine nucleotide exchange factor 40)	SID315480793	-1.17	1.26	1.26	enough cells to score
34	Srp9 (signal recognition particle 9)	SID315470528	0.12	1.5	1.19	enough cells to score
35	Lrrtm2 (leucine rich repeat transmembrane neuronal 2)	SID315476578	-0.36	1.65	1.51	enough cells to score
36	Kcnk4 (potassium channel, subfamily K, member 4)	SID315467592	0.93	1.73	1.51	enough cells to score
37	Spata21 (spermatogenesis associated 21)	SID315481562		1.09	1.3	fewer than 50 cells per well; well left out of scoring
38	Sec22a (SEC22 homolog A, vesicle trafficking protein)	SID315481030	-0.22	1.37	1.24	enough cells to score
39	Smndc1 (survival motor neuron domain containing 1)	SID315475322		1.28	1.18	fewer than 50 cells per well; well left out of scoring
40	Rack1 (receptor for activated C kinase 1)	SID315466954	-0.89	1.29	1.28	enough cells to score
